Values from PubChem BioAssay AID1224828 (NIAID, 2016)

Screen: 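Regulators linking TLR4 signalling to p65 nuclear translocation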 (primary screen)
System: mouse RAW264.7 G9 macrophage reporter cells (GFP-p65, Tnf promoter-mCherry)
Reagent: siRNA pool against mouse genes, 100 nM
Timing: 2 days siRNA transfection, then 40 min LPS before fixation
Treatment: LPS (Salmonella minnesota R595) at 10 ng/ml
Measurement: 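Microscopy ratio of nuclear to perinuclear-ring GFP-p65 signal, scaled to the plate median; gene score is the average of two replicate robust z-scores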
Scale: p65 translocation robust z-score: higher = more nuclear NF-kappaB p65 after LPS than the plate median; nuclear/cytoplasmic p65 ratio: higher = more nuclear NF-kappaB p65
Active means: 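Called active when z exceeds 3.3 or falls under -1.56 (median of Tlr4 controls), giving activity score of at least 50; no calls for control wells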
Calls: active = hit (p65 shift raised or lowered); inactive = no clear change
Here is one part, drawn at random, of about 17,000 deposited reagents. 762 of all reagents (4.5%) were called active. 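Active calls include both raised and lowered p65 entry, mostly lowered; wells with fewer than 50 cells lack a z-score.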 The raw values are shown without normalisation. Unmarked entries are inactive. Reagents against one gene are numbered here. Some reagents were tested in more than one well and are listed for each.

no.	gene	pool no.	p65 translocation robust z-score	nuclear/cytoplasmic p65 ratio, rep 1	nuclear/cytoplasmic p65 ratio, rep 2	low cell count flag
1	Hsd11b1 (hydroxysteroid 11-beta dehydrogenase 1)	1	-0.9	1.38	1.2	enough cells to score
2	Fcgbpl1 (Fc fragment of IgG binding protein like 1)	1	-0.23	1.46	1.45	enough cells to score
3	Or5a1 (olfactory receptor family 5 subfamily A member 1)	1		1.7	1.32	fewer than 50 cells per well; well left out of scoring
4	Hes3 (hes family bHLH transcription factor 3)	1	0.19	1.71	1.54	enough cells to score
5	U2af1 (U2 small nuclear ribonucleoprotein auxiliary factor (U2AF) 1)	1		1.25	1.17	fewer than 50 cells per well; well left out of scoring
6	Fcer1g (Fc receptor, IgE, high affinity I, gamma polypeptide)	1	-1.6 (active)	1.38	1.16	enough cells to score
7	Oscar (osteoclast associated receptor)	1	0.66	1.5	1.35	enough cells to score
8	Gimap3 (GTPase, IMAP family member 3)	1	-2.17 (active)	1.28	1.11	enough cells to score
9	Akap1 (A kinase anchor protein 1)	1	-0.96	1.32	1.26	enough cells to score
10	As3mt (arsenite methyltransferase)	1		1.44	1.12	fewer than 50 cells per well; well left out of scoring
11	Fbxl20 (F-box and leucine-rich repeat protein 20)	1		1.12	1.53	fewer than 50 cells per well; well left out of scoring
12	Fbxl20 (F-box and leucine-rich repeat protein 20)	2	-1.37	1.25	1.22	enough cells to score
13	Srsf3 (serine and arginine-rich splicing factor 3)	1	2.89	2.46	1.48	enough cells to score
14	Habp2 (hyaluronic acid binding protein 2)	1	0.5	1.69	1.64	enough cells to score
15	Dnaaf1 (dynein, axonemal assembly factor 1)	1	-0.2	1.24	0.983	enough cells to score
16	Hdac3 (histone deacetylase 3)	1	-0.81	1.37	1.23	enough cells to score
17	4921511C20Rik (RIKEN cDNA 4921511C20 gene)	1	-1.1	1.1	1.18	enough cells to score
18	Slc25a10	1	-0.59	1.33	1.18	enough cells to score
19	Rnf214 (ring finger protein 214)	1	-0.59	1.52	1.65	enough cells to score
20	Tpbpb (trophoblast specific protein beta)	1	0.15	1.38	1.26	enough cells to score
21	Tbc1d20 (TBC1 domain family, member 20)	1		1.21	1.05	fewer than 50 cells per well; well left out of scoring
22	Itgae (integrin alpha E, epithelial-associated)	1	-0.78	1.36	1.29	enough cells to score
23	Nphp3 (nephronophthisis 3 (adolescent))	1		1.08	1.33	fewer than 50 cells per well; well left out of scoring
24	Rbm12 (RNA binding motif protein 12)	1		1.35	1.18	fewer than 50 cells per well; well left out of scoring
25	Cuedc2 (CUE domain containing 2)	1	-0.13	1.47	1.85	enough cells to score
26	Cd7 (CD7 antigen)	1	-0.45	1.49	1.33	enough cells to score
27	Nfe2l3 (nuclear factor, erythroid derived 2, like 3)	1	-0.38	1.4	1.36	enough cells to score
28	Mrgprx3-ps (MAS-related GPR, member X3, pseudogene)	1	0.07	1.5	1.61	enough cells to score
29	6030445D17Rik (RIKEN cDNA 6030445D17 gene)	1	-1.2	1.21	1.3	enough cells to score
30	Pigq (phosphatidylinositol glycan anchor biosynthesis, class Q)	1	0.25	1.45	1.29	enough cells to score

The list goes on, starting with the last 7 of the part before.
no.	gene	pool no.	p65 translocation robust z-score	nuclear/cytoplasmic p65 ratio, rep 1	nuclear/cytoplasmic p65 ratio, rep 2	low cell count flag
24	Rbm12 (RNA binding motif protein 12)	1		1.35	1.18	fewer than 50 cells per well; well left out of scoring
25	Cuedc2 (CUE domain containing 2)	1	-0.13	1.47	1.85	enough cells to score
26	Cd7 (CD7 antigen)	1	-0.45	1.49	1.33	enough cells to score
27	Nfe2l3 (nuclear factor, erythroid derived 2, like 3)	1	-0.38	1.4	1.36	enough cells to score
28	Mrgprx3-ps (MAS-related GPR, member X3, pseudogene)	1	0.07	1.5	1.61	enough cells to score
29	6030445D17Rik (RIKEN cDNA 6030445D17 gene)	1	-1.2	1.21	1.3	enough cells to score
30	Pigq (phosphatidylinositol glycan anchor biosynthesis, class Q)	1	0.25	1.45	1.29	enough cells to score
31	Grk5 (G protein-coupled receptor kinase 5)	1	0.53	1.92	1.34	enough cells to score
32	Grk5 (G protein-coupled receptor kinase 5)	1	-0.49	1.36	1.52	enough cells to score
33	C2cd2 (C2 calcium-dependent domain containing 2)	1	0.22	1.46	1.42	enough cells to score
34	Blvra (biliverdin reductase A)	1	0.26	1.74	1.57	enough cells to score
35	Tm2d3 (TM2 domain containing 3)	1	0.26	1.51	1.55	enough cells to score
36	Scyl1 (SCY1-like 1 (S. cerevisiae))	1	-0.63	1.51	1.3	enough cells to score
37	Gm4922 (predicted gene 4922)	1	2.34	1.66	1.77	enough cells to score
38	Wdr17 (WD repeat domain 17)	1	0.16	1.47	1.24	enough cells to score
39	Dnah11 (dynein, axonemal, heavy chain 11)	1		1.46	1.25	fewer than 50 cells per well; well left out of scoring
40	Psmd5 (proteasome (prosome, macropain) 26S subunit, non-ATPase, 5)	1	-0.32	1.46	1.36	enough cells to score
41	Il20ra (interleukin 20 receptor, alpha)	1	0.26	1.57	1.37	enough cells to score
42	Lgals7 (lectin, galactose binding, soluble 7)	1	0.89	1.87	1.66	enough cells to score
43	Cpa4 (carboxypeptidase A4)	1	0.66	1.6	1.97	enough cells to score
44	Neil2 (nei like 2 (E. coli))	1	2.88	2.04	1.97	enough cells to score
45	Ctdspl (CTD small phosphatase like)	1	-1.38	1.34	1.59	enough cells to score
46	Ankrd2 (ankyrin repeat domain 2)	1	0.21	1.6	1.76	enough cells to score
47	Tardbp (TAR DNA binding protein)	1	-0.94	1.38	1.45	enough cells to score
48	Arhgef18 (Rho/Rac guanine nucleotide exchange factor 18)	1	-0.81	1.5	1.5	enough cells to score
49	Tceal6 (transcription elongation factor A (SII)-like 6)	1	-1.69 (active)	1.28	1.24	enough cells to score
50	Cacna2d1 (calcium channel, voltage-dependent, alpha2/delta subunit 1)	1	0.02	1.61	1.63	enough cells to score
51	Rgs19 (regulator of G-protein signaling 19)	1	-1.47	1.3	1.38	enough cells to score
52	HMGB2	1	-1.93 (active)	1.27	1.28	enough cells to score
53	Lrrc3 (leucine rich repeat containing 3)	1	-1.29	1.52	1.31	enough cells to score
54	Huwe1 (HECT, UBA and WWE domain containing 1)	1	-0.29	1.46	1.47	enough cells to score
55	Nasp (nuclear autoantigenic sperm protein (histone-binding))	1	0.82	1.91	1.72	enough cells to score
56	Plekha1 (pleckstrin homology domain containing A1)	1	0.29	1.7	1.62	enough cells to score
57	Wasl (WASP like actin nucleation promoting factor)	1	-0.63	1.44	1.49	enough cells to score
58	Hfm1 (helicase for meiosis 1)	1	-1.89 (active)	1.25	1.26	enough cells to score
59	Sptlc1 (serine palmitoyltransferase, long chain base subunit 1)	1	-1.12	1.39	1.39	enough cells to score
